The results in this text go back to patent publication US20240102023A1.

Sequences of proteins named here, by UniProt entry; tags and fusion partners are left off. Residues count along the entry.
UniProt P03372, residues 302-595: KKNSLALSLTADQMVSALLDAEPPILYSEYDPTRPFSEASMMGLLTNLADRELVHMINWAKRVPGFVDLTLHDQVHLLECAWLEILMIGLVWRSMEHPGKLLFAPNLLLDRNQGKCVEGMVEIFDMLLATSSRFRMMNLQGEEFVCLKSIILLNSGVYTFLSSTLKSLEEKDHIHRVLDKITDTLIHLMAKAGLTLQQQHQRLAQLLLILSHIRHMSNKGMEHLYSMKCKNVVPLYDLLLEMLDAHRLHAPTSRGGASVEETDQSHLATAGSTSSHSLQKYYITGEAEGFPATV

Results are given in words; binding and its absence hold for the method and conditions named. In cells and extracts the contact can be indirect. Some results given as binding are weak or reduced against the parent protein; the word gives no strength.

In assay [1] the target is GST-ER fusion protein (UniProt P03372). Kind of assay: GST pull-down, GST-ER with Hela nuclear extract in the presence of MED1SP RNA aptamer, Western blot (FIG. 2D). Background: In western blotting, separated proteins are transferred to a membrane and probed.
The target is the same in assay [2]. Kind of assay: GST pull-down, GST-ER with Hela nuclear extract in the presence of MED1SP RNA aptamer (discussion of FIG. 2D).

B1: PGC-1 beta (ER co-activator, from Hela cell nuclear extract) (protein, UniProt Q86YN6 1-1023, looked up)
chain: MAGNDCGALLDEELSSFFLNYLADTQGGGSGEEQLYADFPELDLSQLDASDFDSATCFGELQWCPENSETEPNQYSPDDSELFQIDSENEALLAELTKTLDDIPEDDVGLAAFPALDGGDALSCTSASPAPSSAPPSPAPEKPSAPAPEVDELSLLQKLLLATSYPTSSSDTQKEGTAWRQAGLRSKSQRPCVKADSTQDKKAPMMQSQSRSCTELHKHLTSAQCCLQDRGLQPPCLQSPRLPAKEDKEPGEDCPSPQPAPASPRDSLALGRADPGAPVSQEDMQAMVQLIRYMHTYCLPQRKLPPQTPEPLPKACSNPSQQVRSRPWSRHHSKASWAEFSILRELLAQDVLCDVSKPYRLATPVYASLTPRSRPRPPKDSQASPGRPSSVEEVRIAASPKSTGPRPSLRPLRLEVKREVRRPARLQQQEEEDEEEEEEEEEEEKEEEEEWGRKRPGRGLPWTKLGRKLESSVCPVRRSRRLNPELGPWLTFADEPLVPSEPQGALPSLCLAPKAYDVERELGSPTDEDSGQDQQLLRGPQIPALESPCESGCGDMDEDPSCPQLPPRDSPRCLMLALSQSDPTFGKKSFEQTLTVELCGTAGLTPPTTPPYKPTEEDPFKPDIKHSLGKEIALSLPSPEGLSLKATPGAAHKLPKKHPERSELLSHLRHATAQPASQAGQKRPFSCSFGDHDYCQVLRPEGVLQRKVLRSWEPSGVHLEDWPQQGAPWAEAQAPGREEDRSCDAGAPPKDSTLLRDHEIRASLTKHFGLLETALEEEDLASCKSPEYDTVFEDSSSSSGESSFLPEEEEEEGEEEEEDDEEEDSGVSPTCSDHCPYQSPPSKANRQLCSRSRSSSGSSPCHSWSPATRRNFRCESRGPCSDRTPSIRHARKRREKAIGEGRVVYIQNLSSDMSSRELKRRFEVFGEIEECEVLTRNRRGEKYGFITYRCSEHAALSLTKGAALRKRNEPSFQLSYGGLRHFCWPRYTDYDSNSEEALPASGKSKYEAMDFDSLLKEAQQSLH
Regarding B1, the binding result with GST-ER fusion protein [1] and with GST-ER fusion protein [2] was “binds” in each case.
